Results as given in article PMC3176313.
Results are given in words; binding and its absence hold for the method and conditions named. In cells and extracts the contact can be indirect. Some results given as binding are weak or reduced against the parent protein; the word gives no strength. Where a sequence is shown, tags or fusion partners need not be part of it. Each block holds one binder with its values, some of them ahead of it.

Protein sequences, listed by entry. Tags and fused reporters are not part of them.
UniProt P10964: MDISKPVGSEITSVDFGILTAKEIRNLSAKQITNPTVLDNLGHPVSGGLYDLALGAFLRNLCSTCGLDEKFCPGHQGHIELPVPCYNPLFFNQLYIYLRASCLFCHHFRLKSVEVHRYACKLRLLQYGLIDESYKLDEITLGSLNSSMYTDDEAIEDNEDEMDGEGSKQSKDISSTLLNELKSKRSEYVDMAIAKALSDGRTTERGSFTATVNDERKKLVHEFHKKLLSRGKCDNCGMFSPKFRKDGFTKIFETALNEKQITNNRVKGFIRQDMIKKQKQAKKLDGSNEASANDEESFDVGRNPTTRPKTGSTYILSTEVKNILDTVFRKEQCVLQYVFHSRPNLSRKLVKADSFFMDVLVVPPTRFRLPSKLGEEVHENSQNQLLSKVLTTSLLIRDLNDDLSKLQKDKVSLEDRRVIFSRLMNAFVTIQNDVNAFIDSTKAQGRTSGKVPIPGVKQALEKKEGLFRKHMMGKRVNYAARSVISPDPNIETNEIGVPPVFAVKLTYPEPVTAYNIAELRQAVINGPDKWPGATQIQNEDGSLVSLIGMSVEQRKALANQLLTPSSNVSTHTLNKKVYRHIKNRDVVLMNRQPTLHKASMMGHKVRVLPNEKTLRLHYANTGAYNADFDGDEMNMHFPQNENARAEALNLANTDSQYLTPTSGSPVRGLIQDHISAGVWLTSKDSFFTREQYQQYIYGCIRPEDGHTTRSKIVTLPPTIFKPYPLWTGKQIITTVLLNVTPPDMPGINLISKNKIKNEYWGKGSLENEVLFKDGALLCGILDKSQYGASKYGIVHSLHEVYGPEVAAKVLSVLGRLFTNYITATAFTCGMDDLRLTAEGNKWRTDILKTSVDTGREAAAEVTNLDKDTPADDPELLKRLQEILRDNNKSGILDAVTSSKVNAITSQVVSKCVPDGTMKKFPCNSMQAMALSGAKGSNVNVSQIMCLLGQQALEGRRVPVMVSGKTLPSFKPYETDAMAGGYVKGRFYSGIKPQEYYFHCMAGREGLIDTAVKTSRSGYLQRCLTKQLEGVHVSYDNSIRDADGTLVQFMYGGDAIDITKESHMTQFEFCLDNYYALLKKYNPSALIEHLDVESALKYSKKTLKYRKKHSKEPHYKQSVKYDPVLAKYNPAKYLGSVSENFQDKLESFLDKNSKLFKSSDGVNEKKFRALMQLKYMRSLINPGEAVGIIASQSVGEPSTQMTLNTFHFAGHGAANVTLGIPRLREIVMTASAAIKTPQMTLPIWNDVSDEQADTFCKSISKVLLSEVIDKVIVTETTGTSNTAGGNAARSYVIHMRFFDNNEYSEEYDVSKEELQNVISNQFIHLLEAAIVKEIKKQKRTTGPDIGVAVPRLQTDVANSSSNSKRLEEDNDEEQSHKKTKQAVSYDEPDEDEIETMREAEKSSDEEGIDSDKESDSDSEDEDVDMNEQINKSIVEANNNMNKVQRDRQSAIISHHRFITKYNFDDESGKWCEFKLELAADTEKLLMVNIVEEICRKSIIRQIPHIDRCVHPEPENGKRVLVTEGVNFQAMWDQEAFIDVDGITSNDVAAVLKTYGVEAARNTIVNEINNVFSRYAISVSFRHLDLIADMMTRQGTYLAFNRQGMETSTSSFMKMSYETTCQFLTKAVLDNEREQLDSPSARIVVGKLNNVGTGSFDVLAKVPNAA

What was measured:
Assay in all cases: co-IP; glass-bead yeast lysates in IP buffer (20 mM HEPES pH 7.5, EDTA, 100 mM NaCl, 20% glycerol, 0.05% NP-40); TAP-tagged bait captured on IgG-coated magnetic beads, 2 h at 21°C; washes with IP buffer supplemented with 150 mM NaCl; HA-tagged prey detected by Western blot
Nrd1-TAP (budding yeast) = target: T1, Nrd1-TAP (budding yeast) (UniProt P53617)
T1 sequence: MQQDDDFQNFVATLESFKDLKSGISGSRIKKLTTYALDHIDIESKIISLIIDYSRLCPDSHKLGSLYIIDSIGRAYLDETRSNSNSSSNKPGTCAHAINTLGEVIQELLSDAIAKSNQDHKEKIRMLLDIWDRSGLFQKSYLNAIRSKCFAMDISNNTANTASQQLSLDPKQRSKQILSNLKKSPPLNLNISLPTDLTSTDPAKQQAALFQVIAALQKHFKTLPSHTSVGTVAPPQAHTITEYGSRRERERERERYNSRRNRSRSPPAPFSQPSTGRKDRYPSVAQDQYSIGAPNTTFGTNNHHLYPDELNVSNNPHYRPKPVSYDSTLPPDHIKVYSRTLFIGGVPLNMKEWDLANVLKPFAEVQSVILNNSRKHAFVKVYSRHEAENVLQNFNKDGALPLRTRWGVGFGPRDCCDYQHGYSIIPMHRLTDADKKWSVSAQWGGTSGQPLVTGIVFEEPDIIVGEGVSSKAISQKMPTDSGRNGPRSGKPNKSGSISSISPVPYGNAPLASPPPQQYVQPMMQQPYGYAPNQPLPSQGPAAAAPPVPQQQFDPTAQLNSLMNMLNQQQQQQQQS

[1] = target: Rpa190-TAP (budding yeast) (UniProt P10964)
[2] = target: T2, Spt5-TAP fusion (budding yeast) (UniProt P27692)
T2 sequence: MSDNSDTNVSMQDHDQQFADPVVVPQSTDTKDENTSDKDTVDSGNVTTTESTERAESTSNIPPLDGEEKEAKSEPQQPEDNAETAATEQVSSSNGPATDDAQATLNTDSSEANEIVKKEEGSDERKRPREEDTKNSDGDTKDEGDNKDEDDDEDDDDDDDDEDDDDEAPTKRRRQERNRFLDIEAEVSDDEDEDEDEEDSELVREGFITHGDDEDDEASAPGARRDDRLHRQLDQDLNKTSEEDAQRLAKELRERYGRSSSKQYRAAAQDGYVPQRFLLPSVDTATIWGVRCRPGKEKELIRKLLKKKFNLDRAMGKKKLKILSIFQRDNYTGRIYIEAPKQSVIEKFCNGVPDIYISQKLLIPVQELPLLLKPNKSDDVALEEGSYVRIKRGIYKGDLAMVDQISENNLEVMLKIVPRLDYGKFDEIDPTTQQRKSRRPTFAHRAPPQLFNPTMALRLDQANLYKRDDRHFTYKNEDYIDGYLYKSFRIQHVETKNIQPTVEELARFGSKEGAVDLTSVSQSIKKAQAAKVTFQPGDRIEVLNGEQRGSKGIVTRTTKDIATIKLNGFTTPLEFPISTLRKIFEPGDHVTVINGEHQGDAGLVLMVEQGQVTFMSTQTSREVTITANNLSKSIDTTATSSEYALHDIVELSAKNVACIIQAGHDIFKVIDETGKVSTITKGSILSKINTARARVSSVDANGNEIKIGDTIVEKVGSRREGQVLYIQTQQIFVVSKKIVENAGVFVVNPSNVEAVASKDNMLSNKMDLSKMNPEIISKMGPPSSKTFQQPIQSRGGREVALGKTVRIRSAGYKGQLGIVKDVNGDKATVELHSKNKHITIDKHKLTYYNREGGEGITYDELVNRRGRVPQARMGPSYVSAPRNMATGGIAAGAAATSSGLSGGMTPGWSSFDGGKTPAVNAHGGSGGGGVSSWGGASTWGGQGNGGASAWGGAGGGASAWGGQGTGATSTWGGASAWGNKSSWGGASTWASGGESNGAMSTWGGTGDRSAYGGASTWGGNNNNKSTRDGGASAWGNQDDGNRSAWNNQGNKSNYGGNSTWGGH

binding (Nrd1-TAP (budding yeast)): binds
binding [1]: binds
B1: full-length Spt5-HA fusion (protein, UniProt P27692 1-1063)
chain: T2 sequence

binding [2]: binds
B2: Nrd1-HA fusion (protein, UniProt P53617 1-575)
chain: T1 sequence
